According to paper PMC7179958 (CPT: Pharmacometrics & Systems Pharmacology, 2020):

System: human hepatocytes
Experiment: Uptake of pitavastatin and eltrombopag in cryopreserved human hepatocytes (oil spin method), comeasurement, micro‐rate constant mechanistic model
Type: in vitro ADME
Experimental: Human hepatocytes were obtained from BioIVT (Brussels, Belgium; lot number: LYB; 10 donor LiverPool (8 Caucasians, 1 African American, and 1 Hispanic) and thawed according to supplier guidelines in Leibovitz L15 medium. Hepatocytes were kept on ice prior to use and were used within 3 hours of defrosting.
Cells were separated using an oil spin method similar to the literature. ^11 , ^17 After separation, the tubes were frozen on dry ice and the bottom layer was cut off.
A dilution factor of 100 was used to scale from pmol/mL/1 × 10^5 cells to nmol/mL/1 × 10^6 cells.
Passive rate constants for movement into and out of the cell (k f.X and k bX, respectively) as well as uptake transporter‐mediated rate constants for association to the transporter (k aX) and dissociation (k dX) and translocation (k tX) from the transporter into the medium and cell, respectively. […] The sets of ODEs for all the models (models 1–4; Table 1 ) tested for structural identifiability and used for parameter estimation are included in the Supplemental Material .
Parameter estimation was conducted within Monolix 2018 R2 (Lixoft, Antony, France) for each concentration and experiment as an individual data set, where to ensure positivity, a log‐normal distribution was assumed for each parameter, with a proportional residual error model for the observations.
Hepatocyte Incubations. […] Eltrombopag was dissolved in DMSO to give 30 µmol/mL, then diluted 333-fold to 90 nmol/mL in Leibovitz L15 medium. […] Briefly, 0.5 mL microtubes (12049877, Thermo-Fisher Scientific, Gothenburg, Sweden) layered with 15 µL of 4 % cesium chloride onto which 140 µL of 8:2 silicone oil: mineral oil, with oil red O was added. Samples were taken by transferring 100 µL of hepatocyte suspension into the microtube and spun for 15 s in a Minispin centrifuge (Eppendorf, Horsholm, Denmark), during which time the hepatocytes passed through the oil into the cesium chloride bottom layer. […]

| SMILES | times k fP lower than k fE (passive rate into the cell, pitavastatin compared with eltrombopag) [times] | times k fP lower than k bP (pitavastatin passive rate constant into vs out of the cell) [times] | k bE relative to k bP (passive rate constant out of the cell, eltrombopag greater) |
| --- | --- | --- | --- |
| O=C(O)C[C@H](O)C[C@H](O)/C=C/c1c(C2CC2)nc2ccccc2c1-c1ccc(F)cc1 [pitavastatin, pitavastatin calcium] | 91 | 380 |  |
| CC1=NN(c2ccc(C)c(C)c2)C(=O)/C1=N\Nc1cccc(-c2cccc(C(=O)O)c2)c1O [eltrombopag, Eltrombopag] |  |  | twofold |
